Literature values in patent publication US10787446B2 (GENENTECH, INC., priority 2015, dated 2020).

Conditions: administered topically (Lidoderm patch); cited from earlier work

## CCN(CC)CC(=O)Nc1c(C)cccc1C [lidocaine]
  plasma concentrations: about 1 μM
